Data from PMC5570293.
These are yes or no findings as the source states them, for the method shown. Binding seen in cells or lysates may run through a third protein. For part of these data: Binding can be weak; no strength is given. Tags and fused reporters may be left off the sequences shown.

How the values were obtained:
Experiment in all cases: co-IP; S2 cells cotransfected with UAS plasmids and actC5-GAL4, 72 h expression; immunoprecipitation with rabbit anti-GFP antibodies; Western blots with anti-GFP, anti-FLAG or anti-HA
[1] = target: T1, Mfap1-GFP (C-terminally GFP-tagged full length Mfap1, 1-478) (Drosophila) (UniProt Q9W062)
T1 sequence: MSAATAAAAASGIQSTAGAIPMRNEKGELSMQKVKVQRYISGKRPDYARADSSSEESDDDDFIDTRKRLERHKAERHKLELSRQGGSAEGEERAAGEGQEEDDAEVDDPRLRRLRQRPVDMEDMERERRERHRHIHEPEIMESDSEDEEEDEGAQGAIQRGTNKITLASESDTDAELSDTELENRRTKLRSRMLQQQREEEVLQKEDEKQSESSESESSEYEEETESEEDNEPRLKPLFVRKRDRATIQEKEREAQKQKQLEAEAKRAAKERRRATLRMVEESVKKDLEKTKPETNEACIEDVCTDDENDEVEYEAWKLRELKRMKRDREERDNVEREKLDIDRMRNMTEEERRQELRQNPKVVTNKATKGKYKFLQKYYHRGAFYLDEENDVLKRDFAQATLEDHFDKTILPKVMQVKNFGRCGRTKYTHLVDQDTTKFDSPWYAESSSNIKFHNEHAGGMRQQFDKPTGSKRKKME

[2] = target: T2, GFP-Mfap1^1-229 (Drosophila) (UniProt Q9W062)
T2 sequence: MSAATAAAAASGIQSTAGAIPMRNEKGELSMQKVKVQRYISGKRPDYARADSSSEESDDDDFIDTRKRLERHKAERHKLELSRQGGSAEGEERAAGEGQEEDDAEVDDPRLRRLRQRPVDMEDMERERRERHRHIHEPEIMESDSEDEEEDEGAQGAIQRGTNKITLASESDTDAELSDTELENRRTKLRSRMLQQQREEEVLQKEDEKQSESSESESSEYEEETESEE

[3] = target: T3, GFP-Mfap1^230-478 (Drosophila) (UniProt Q9W062)
T3 sequence: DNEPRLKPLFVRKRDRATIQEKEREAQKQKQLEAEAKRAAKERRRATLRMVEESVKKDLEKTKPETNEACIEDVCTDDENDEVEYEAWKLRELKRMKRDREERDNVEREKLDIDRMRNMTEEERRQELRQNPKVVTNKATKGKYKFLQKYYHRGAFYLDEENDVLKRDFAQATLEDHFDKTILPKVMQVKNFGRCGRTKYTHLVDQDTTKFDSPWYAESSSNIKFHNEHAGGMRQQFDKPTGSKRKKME

- binding [1]: binds
- binding [2]: binds
- binding [3]: no binding
Substance: FLAG-tagged dominant-negative VCP QQ (ATPase-dead VCP carrying mutations E335Q, E575Q) (Drosophila)
